Measured values as given in article PMC8965486.
Results are given in words; binding and its absence hold for the method and conditions named.

By UniProt entry, the sequences of proteins in these tests, tags left out.
UniProt P48059: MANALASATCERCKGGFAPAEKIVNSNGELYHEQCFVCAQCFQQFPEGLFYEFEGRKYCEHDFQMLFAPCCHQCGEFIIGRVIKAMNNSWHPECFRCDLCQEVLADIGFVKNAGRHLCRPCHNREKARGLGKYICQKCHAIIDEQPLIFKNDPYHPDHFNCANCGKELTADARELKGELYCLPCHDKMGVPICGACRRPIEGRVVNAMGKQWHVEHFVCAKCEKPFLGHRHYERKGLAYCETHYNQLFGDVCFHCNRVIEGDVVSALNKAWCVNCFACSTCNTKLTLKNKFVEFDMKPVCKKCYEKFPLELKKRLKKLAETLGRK

Target: GST fusion protein containing NEDD4 HECT domain (UniProt P46934)
Experiment: pull-down; GST or GST-fusion proteins bound to Glutathione-Sepharose beads incubated with recombinant MBP-PINCH-1 at 4°C overnight; washed 3 times with PBS containing 1% Triton X-100; WB with anti-His Ab; both purified

binding: no binding
Substance: maltose binding protein (MBP)-His-tagged PINCH-1 protein (from UniProt P48059 1-325)
